We go through 28 compounds from PubChem BioAssay AID330 (DTP/NCI, 2004).

The subject of the assay is P388 leukemia ip, CD2F1 mice, survival T/C. Nature of the assay: NCI In Vivo Anticancer Drug Screen. Data for tumor model P388 Leukemia (intraperitoneal) in CD2F1 (CDF1) mice. Particulars: T/C endpoint: median survival time, higher T/C = longer survival.
The mark [1] stands for this setting: dose: 400.0 mg/kg/injection, schedule: Q04DX003 (ip), vehicle: Klucel (hydroxypropylcellulose) (HPC).
Setting [2] is: dose: 100.0 mg/kg/injection, schedule: Q01DX009 (ip), vehicle: saline with Tween-80.
Where [3] appears, read: dose: 100.0 mg/kg/injection, schedule: Q01DX009 (ip), vehicle: saline.
Setting [4] is: dose: 200.0 mg/kg/injection, schedule: Q01DX009 (ip), vehicle: saline.
[5] abbreviates: dose: 200.0 mg/kg/injection, schedule: Q01DX009 (ip), vehicle: Klucel (hydroxypropylcellulose) (HPC).
[6] abbreviates: dose: 6.25 mg/kg/injection, schedule: Q01DX009 (ip), vehicle: saline.
[7] abbreviates: dose: 200.0 mg/kg/injection, schedule: Q01DX009 (ip), vehicle: saline with Tween-80.
[8] abbreviates: dose: 240.0 mg/kg/injection, schedule: Q01DX005 (ip), vehicle: saline with Tween-80.

The list is a part of this screen's results and no random one: it gathers tests that were run many times, whatever their T/C, doses with no T/C, and many T/C values between a quarter and a half above the control. Other doses and runs of a compound stand elsewhere. T/C is the treated group as % of the vehicle group. Some doses have a count of surviving animals in place of a T/C: the source holds a T/C of zero for them, seemingly a mark for toxic or unscored doses. Some survivor counts are full or nearly so, which does not show that the dose was tolerated: the source hardly ever lists a survival T/C far under the control, and the zero likely stands for such cases as well. Counts of survivors are from the toxicity check (mostly the fifth day) where no day follows; animals may have died later. Schedules are NCI's codes, read here as Q, the interval in days (D) or hours (H), X, the number of doses. For survival time, this PubChem deposit counts one and a half times the control or more as active, and values a quarter to a half above the control carry no call in these data; other NCI protocols may use other cut-offs. Some entries were tested several times; the values are given in rising order.

Consider `CCOC(=O)Cn1cnc2cc(Cl)c([N+](=O)[O-])cc2c1=O`, for which, under setting [1], the T/C was 130 % of control.
`O=[n+]1ccn([O-])c2ccccc21.[Cu+2].[O-][Cl+3]([O-])([O-])O`: the survivor count (dose: 100.0 mg/kg/injection, schedule: Q04DX003 (ip), vehicle: saline + Tween-80 + alcohol) is recorded as 0 of 6; the survivor count (dose: 200.0 mg/kg/injection, schedule: Q04DX003 (ip), vehicle: saline + Tween-80 + alcohol) is recorded as 0 of 6; the survivor count (dose: 400.0 mg/kg/injection, schedule: Q04DX003 (ip), vehicle: saline + Tween-80 + alcohol) is reported as 0 of 6.
Consider `COc1ccc(OC)c(C=Nc2ccc(S(=O)(=O)Nc3nccc(C)n3)cc2)c1`, for which the survivor count by setting is: (dose: 50.0 mg/kg/injection, schedule: Q01DX009 (ip), vehicle: saline with Tween-80) 6 of 6; under setting [2], 6 of 6.
On to `COC1C(O)C(CO)OC1n1ccc(NC(=O)c2ccccc2)nc1=O` (stereo not drawn), for which, for the setting “dose: 120.0 mg/kg/injection, schedule: Q01DX005 (ip), vehicle: Klucel (hydroxypropylcellulose) (HPC)”, the survivor count is reported as 6 of 6.
Turning to `CC1=C2CC/C(C)=C/CCC3(C)OC3CC/C(C)=C/C2OC1=O` (stereo not drawn), the survivor count (dose: 8.0 mg/kg/injection, schedule: Q01DX009 (ip), vehicle: Klucel (hydroxypropylcellulose) (HPC)) is 6 of 6.
In the case of `O=C(O)COc1ccc(I)cc1I`, under setting [1], the survivor count is recorded as 2 of 4.
As to `CCCNC(=S)N/N=C(/C)CC/C(C)=N/NC(=S)NCCC`, the survivor count under setting [3] is 6 of 6 and the survivor count under setting [4] is on record as 6 of 6.
For the compound `CCOC(=O)/C(C=NC1CC(N=C/C(C(=O)OCC)=C(\C)O)CC(N=C/C(C(=O)OCC)=C(\C)O)C1)=C(/C)O` (stereo not drawn), the survivor count runs as follows: (dose: 100.0 mg/kg/injection, schedule: Q01DX009 (ip), vehicle: Klucel (hydroxypropylcellulose) (HPC)) 6 of 6; under setting [5], 6 of 6.
On to `COC(=O)[C@@H]1c2cc3c(c(O)c2[C@@H](OC)C[C@@]1(C)O)C(=O)c1c(O)cc2c(c1C3=O)OC1O[C@@]2(C)[C@H](O)[C@@H](N(C)C)[C@@H]1O`, for which the T/C runs as follows: (dose: 6.25 mg/kg/injection, schedule: Q01DX009 (ip), vehicle: other) 146 % of control; under setting [6], 130 % of control; (dose: 12.5 mg/kg/injection, schedule: Q04DX003 (ip), vehicle: other) 129 % of control; (dose: 12.5 mg/kg/injection, schedule: Q04DX003 (ip), vehicle: saline) 131 % of control; (dose: 25.0 mg/kg/injection, schedule: Q04DX003 (ip), vehicle: other) 135 % of control; (dose: 25.0 mg/kg/injection, schedule: Q04DX003 (ip), vehicle: saline) 135 % of control. Also, the survivor count is, setting by setting: (dose: 100.0 mg/kg/injection, schedule: Q01DX010 (ip), vehicle: saline) 1 of 6; (dose: 200.0 mg/kg/injection, schedule: Q04DX003 (ip), vehicle: other) 5 of 6.
`CCC[CH2][Sn]([CH2]CCC)([O]C=O)[O]C=O`: the survivor count reads like this: (dose: 0.39 mg/kg/injection, schedule: Q01DX009 (ip), vehicle: saline) 4 of 6; (dose: 0.79 mg/kg/injection, schedule: Q01DX009 (ip), vehicle: saline) 6 of 6; (dose: 1.56 mg/kg/injection, schedule: Q01DX009 (ip), vehicle: saline) 6 of 6; under setting [6], 6 of 6; (dose: 12.5 mg/kg/injection, schedule: Q01DX009 (ip), vehicle: saline) 0 of 6; (dose: 50.0 mg/kg/injection, schedule: Q01DX009 (ip), vehicle: saline) 0 of 6. Moreover, the survivor count runs as follows: under setting [3], 0 of 6; under setting [4], 0 of 6. For the same compound, where the note is “dose: 3.12 mg/kg/injection, schedule: Q01DX009 (ip), vehicle: saline”, the T/C is on record as 90, 91, 101, 128 % of control.
Regarding `COc1cc2cc(c1Cl)N(C)C(=O)/C=C/C1(C)OC1C(C)C1CC(O)(NC(=O)O1)C(OC)/C=C/C=C(\C)C2OC` (stereo not drawn), the T/C is 136 % of control (dose: 8.0 micrograms/kg/injection, schedule: Q01DX009 (ip), vehicle: distilled water + alcohol); 128 and 132 % of control (dose: 32.0 micrograms/kg/injection, schedule: Q01DX009 (ip), vehicle: distilled water + alcohol).
With `O/N=C/c1c(Cl)nc2sccn12`, where the note is “dose: 400.0 mg/kg/injection, schedule: Q01DX001 (ip), vehicle: Klucel (hydroxypropylcellulose) (HPC)”, the survivor count is 1 of 6.
For `CC1=C(O)C(=O)C(c2c(C)cc(C)c(Br)c2C)=C(O)C1=O`, the T/C was 125 % of control (dose: 25.0 mg/kg/injection, schedule: Q01DX005 (ip), vehicle: Klucel (hydroxypropylcellulose) (HPC)) and 125 % of control (dose: 50.0 mg/kg/injection, schedule: Q01DX005 (ip), vehicle: Klucel (hydroxypropylcellulose) (HPC)). Also, the survivor count (dose: 100.0 mg/kg/injection, schedule: Q01DX005 (ip), vehicle: Klucel (hydroxypropylcellulose) (HPC)) is reported as 0 of 6.
Consider `CC1=C(C)C(N2CCOCC2)CS(=O)(=O)O1` (stereo not drawn), for which the survivor count (dose: 200.0 mg/kg/injection, schedule: Q01DX005 (ip), vehicle: Klucel (hydroxypropylcellulose) (HPC)) is reported as 0 of 6.
For `CC(C)(C)CC(C)(C)c1ccc(OCCO)cc1`, the survivor count (dose: 200.0 mg/kg/injection, schedule: Q04DX003 (ip), vehicle: saline) was 4 of 6.
Regarding `O=C1C(Cl)=CC(=NS(=O)(=O)c2ccccc2)C=C1Cl`, the survivor count is, setting by setting: (dose: 12.5 mg/kg/injection, schedule: Q04DX003 (ip), vehicle: saline with Tween-80) 2 of 6; (dose: 25.0 mg/kg/injection, schedule: Q04DX003 (ip), vehicle: saline with Tween-80) 1 of 6.
Turning to `CCOC1=CC(=O)/C(=C/O[Si](C)(C)C)CC1`, under setting [7], the survivor count was 5 of 6.
Regarding `Cc1nc(=S)c2ncn(-c3ccccc3)c2[nH]1`, the survivor count (dose: 240.0 mg/kg/injection, schedule: Q01DX005 (ip), vehicle: Klucel (hydroxypropylcellulose) (HPC)) is given as 6 of 6.
For `CC(Cc1ccccc1)NC(=O)C1CC2CCCCN2C1C` (stereo not drawn), under setting [8], the survivor count is recorded as 0 of 6.
The same measure, in the same setting: the same measure for `N#C/C(=C\Nc1ccccn1)C(=O)c1ccco1`: 5 of 6.
Take `CCCc1cc(-c2cccc3ccccc23)c(CCC)c2c1-c1cccc3cccc-2c13`: the survivor count under setting [7] is recorded as 6 of 6.
For the compound `Nc1ccc2nc[nH]c2c1`, the survivor count is reported as 4 of 6 (dose: 200.0 mg/kg/injection, schedule: Q04DX002 (ip), vehicle: Klucel (hydroxypropylcellulose) (HPC)) and 0 of 6 (dose: 400.0 mg/kg/injection, schedule: Q04DX002 (ip), vehicle: Klucel (hydroxypropylcellulose) (HPC)).
In the case of `COc1ccc(C2=NC(c3ccccc3)N3C(c4ccccc4)NC(c4ccccc4)C2C3c2ccccc2)cc1` (stereo not drawn), the survivor count under setting [2] is recorded as 6 of 6.
Turning to `CC1(C)CCC2=C1CC[C@H]1[C@H]2CCC2=CC(=O)CC[C@@]21C`, the survivor count (dose: 400.0 mg/kg/injection, schedule: Q01DX009 (ip), vehicle: saline with Tween-80) is reported as 6 of 6.
On to `CCCCCCCCCCCCOC(=O)c1ccc(O)cc1`, for which the survivor count under setting [5] is listed as 5 of 6.
As to `CN(C)CCC(=O)c1cccs1`, the survivor count by setting is: under setting [4], 0 of 6; (dose: 400.0 mg/kg/injection, schedule: Q01DX009 (ip), vehicle: saline) 0 of 6.
For `COC(=O)CCC1=C(C)c2cc3cc(C)c(cc4cc(C)c(cc5nc(cc1n2)C(CCC(=O)OC)=C5C)[nH]4)[nH]3`, the survivor count (dose: 6.25 mg/kg/injection, schedule: Q01DX005 (ip), vehicle: saline with Tween-80) was 5 of 5; the survivor count (dose: 12.5 mg/kg/injection, schedule: Q01DX005 (ip), vehicle: saline with Tween-80) is recorded as 5 of 5; the survivor count (dose: 50.0 mg/kg/injection, schedule: Q01DX005 (ip), vehicle: saline with Tween-80) is given as 0 of 5; the survivor count (dose: 100.0 mg/kg/injection, schedule: Q01DX005 (ip), vehicle: saline with Tween-80) is 0 of 5; the survivor count (dose: 200.0 mg/kg/injection, schedule: Q01DX005 (ip), vehicle: saline with Tween-80) was 0 of 5.
Take `CC(=O)NCCSSSCCNC(C)=O`: the survivor count (dose: 200.0 mg/kg/injection, schedule: Q01DX005 (ip), vehicle: saline) is given as 2 of 5.
